# Test results published in PubChem BioAssay AID248 (DTP/NCI, 2004).
# The list shows only some results of the screen, not a fair sample: it gathers tests that were run many times, whatever their T/C, doses with no T/C, and many T/C values between a quarter and a half above the control. Further doses and runs are listed elsewhere. T/C is the treated group as % of the vehicle group. Some doses have a count of surviving animals in place of a T/C: the source files T/C as zero there, which appears to mark a toxic dose or a test without result, not a measured value. Some doses without a T/C left all or most animals alive at the check, yet need not have been tolerated: survival well below the control is almost never listed, so the zero probably covers shortened survival too. Survivors were counted at the toxicity check, usually on the fifth day, unless a day is given; later deaths do not show. Schedules are NCI's codes, read here as Q, the interval in days (D) or hours (H), X, the number of doses. Some schedule codes hold Z or #, which are not explained here. Some doses were run more than once; the values are given in rising order. Where survival is the endpoint, this PubChem deposit counts one and a half times the control or more as active, and values a quarter to a half above the control carry no call in these data; other NCI protocols may use other cut-offs. Some T/C values carry the count of animals alive at the toxicity check (mostly the fifth day); where none is given, no animal had died by that day.
# Test system: L1210 leukemia ip in BDF1 mice, survival T/C
# Test: NCI In Vivo Anticancer Drug Screen. Data for tumor model L1210 Leukemia (intraperitoneal) in B6D2F1 (BDF1) mice
# Conditions: T/C endpoint: mean survival time, higher T/C = longer survival
# [1] = dose: 25.0 mg/kg/injection, schedule: Q04DX003 (ip), vehicle: saline
# [2] = dose: 50.0 mg/kg/injection, schedule: Q04DX003 (ip), vehicle: saline
# [3] = dose: 100.0 mg/kg/injection, schedule: Q04DX003 (ip), vehicle: saline
# [4] = dose: 400.0 mg/kg/injection, schedule: Q01DX001 (ip), vehicle: other
# [5] = dose: 400.0 mg/kg/injection, schedule: Q04DX002 (ip), vehicle: saline with Tween-80
# [6] = dose: 400.0 mg/kg/injection, schedule: Q01DX001 (ip), vehicle: saline
# [7] = dose: 100.0 mg/kg/injection, schedule: Q01DX009 (ip), vehicle: saline with Tween-80
# [8] = dose: 400.0 mg/kg/injection, schedule: Q01DX009 (ip), vehicle: saline with Tween-80
# [9] = dose: 400.0 mg/kg/injection, schedule: Q01DX009 (ip), vehicle: saline
compound,measurement,setting,value
O=C1NC2(CCCCC2)C(=O)N1CCN(CCCl)CCCl,T/C,"dose: 16.0 mg/kg/injection, schedule: Q04DX003 (ip), vehicle: saline",126 % of control
same,T/C,[1],"125, 130, 136 % of control"
same,T/C,"dose: 35.0 mg/kg/injection, schedule: Q04DX003 (ip), vehicle: saline",131 and 137 % of control [5 of 6 alive]
same,survivor count,"dose: 50.0 mg/kg/injection, schedule: Q01DX009 (ip), vehicle: saline",2 of 6
same,survivor count,[2],5 of 6
same,survivor count,"dose: 100.0 mg/kg/injection, schedule: Q01DX009 (ip), vehicle: saline",2 of 6
same,survivor count,[3],3 of 6
same,survivor count,"dose: 200.0 mg/kg/injection, schedule: Q01DX009 (ip), vehicle: saline",0 of 6
same,survivor count,"dose: 200.0 mg/kg/injection, schedule: Q04DX003 (ip), vehicle: saline",0 of 6
CN(C)c1ccc([N+](=O)[O-])cc1[N+](=O)[O-],T/C,[4],125 % of control [5 of 6 alive]
BrP(Nc1ccccc1)(c1ccccc1)(c1ccccc1)c1ccccc1,survivor count,"dose: 75.0 mg/kg/injection, schedule: Q01DX001 (ip), vehicle: saline",1 of 6
same,survivor count,"dose: 150.0 mg/kg/injection, schedule: Q01DX001 (ip), vehicle: saline",0 of 6
same,survivor count,"dose: 300.0 mg/kg/injection, schedule: Q01DX001 (ip), vehicle: saline",0 of 6
CCCC[S][Sn-]([CH2]CCC)([CH2]CCC)[CH2]CCC,survivor count,"dose: 50.0 mg/kg/injection, schedule: Q04DX002 (ip), vehicle: saline with Tween-80",2 of 3
same,survivor count,"dose: 100.0 mg/kg/injection, schedule: Q04DX002 (ip), vehicle: saline with Tween-80",0 of 3 and 1 of 3
same,survivor count,"dose: 200.0 mg/kg/injection, schedule: Q04DX002 (ip), vehicle: saline with Tween-80",0 of 3
same,survivor count,[5],0 of 3
O=C(Nc1ccc(CN2CCOCC2)cc1)c1ccc(C(=O)Nc2ccc(CN3CCOCC3)cc2)cc1,survivor count,"dose: 150.0 mg/kg/injection, schedule: Q01DX Z (ip), vehicle: water",5 of 6
same,survivor count,"dose: 300.0 mg/kg/injection, schedule: Q01DX Z (ip), vehicle: water",2 of 6
Cc1c(O)ccc(O)c1C,survivor count,[6],0 of 6
O=C1CN=C(c2ccccn2)c2cc(Br)ccc2N1,T/C,"dose: 400.0 mg/kg/injection, schedule: Q04DX002 (ip), vehicle: Klucel (hydroxypropylcellulose) (HPC)",142 % of control
same,T/C,"dose: 600.0 mg/kg/injection, schedule: Q04DX002 (ip), vehicle: Klucel (hydroxypropylcellulose) (HPC)",127 % of control
CCNC1=C(N2CC2)C(=O)C(NCC)=C(N2CC2)C1=O,T/C,"dose: 0.37 mg/kg/injection, schedule: Q01DX009 (ip), vehicle: saline",134 % of control
same,T/C,"dose: 0.75 mg/kg/injection, schedule: Q01DX009 (ip), vehicle: saline",127 % of control
same,T/C,"dose: 1.5 mg/kg/injection, schedule: Q04DX003 (ip), vehicle: saline",146 % of control
same,T/C,"dose: 1.56 mg/kg/injection, schedule: Q04DX003 (ip), vehicle: saline",132 % of control
same,T/C,"dose: 3.0 mg/kg/injection, schedule: Q04DX003 (ip), vehicle: saline",128 % of control
same,survivor count,"dose: 6.0 mg/kg/injection, schedule: Q01DX001 (ip), vehicle: saline",5 of 6
same,survivor count,"dose: 6.0 mg/kg/injection, schedule: Q04DX003 (ip), vehicle: saline",3 of 6
same,survivor count,"dose: 12.5 mg/kg/injection, schedule: Q04DX003 (ip), vehicle: saline",6 of 6
same,survivor count,[1],4 of 6
same,survivor count,[2],5 of 6
same,survivor count,[3],0 of 6
Cc1c2oc3c(C)ccc(C(=O)NCCN4CCCCC4)c3nc-2c(C(=O)NCCN2CCCCC2)c(N)c1=O,survivor count,"dose: 400.0 mg/kg/injection, schedule: Q04DX002 (ip), vehicle: saline",0 of 3
CSc1c(Cl)c(C(Cl)(Cl)Cl)nc2ccccc12,survivor count,[7],2 of 3
same,survivor count,"dose: 200.0 mg/kg/injection, schedule: Q01DX009 (ip), vehicle: saline with Tween-80",0 of 3
COC1OC(C2N(c3ccccc3)CCN2c2ccccc2)=CC(OC(C)=O)C1OC(C)=O (stereo not drawn),survivor count,"dose: 200.0 mg/kg/injection, schedule: Q01DX009 (ip), vehicle: Klucel (hydroxypropylcellulose) (HPC)",6 of 6
COc1ccc(Cl)cc1NC(=O)Oc1ccccn1,survivor count,"dose: 100.0 mg/kg/injection, schedule: Q01DX001 (ip), vehicle: saline with Tween-80",6 of 6
same,survivor count,[7],3 of 3
same,survivor count,[8],3 of 6
BrCC(CBr)(CBr)CBr,survivor count,[9],5 of 6
Cc1c(N=NN(C)C)c(=O)n(-c2ccccc2)n1C,survivor count,[7],5 of 6
same,survivor count,"dose: 200.0 mg/kg/injection, schedule: Q01DX001 (ip), vehicle: saline with Tween-80",0 of 6
same,survivor count,"dose: 400.0 mg/kg/injection, schedule: Q01DX001 (ip), vehicle: saline with Tween-80",0 of 6
Cc1ccc(NCc2ccccc2)cc1,survivor count,"dose: 400.0 mg/kg/injection, schedule: Q04DX003 (ip), vehicle: other",2 of 6
CC(C)(O)C(O)C(=O)O (stereo not drawn),survivor count,[9],2 of 6
O=P1(N(CCF)CCF)NCCCO1 (stereo not drawn),survivor count,"dose: 100.0 mg/kg/injection, schedule: Q01DX Z (ip), vehicle: other",0 of 6
same,survivor count,"dose: 300.0 mg/kg/injection, schedule: Q01DX Z (ip), vehicle: other",0 of 6
c1ccc2c(c1)c1c(n2N2CCCCC2)CCC1,survivor count,[5],0 of 3
c1ccc2c(c1)ccn1cnnc21,survivor count,[6],0 of 4
Cc1ccc(-n2cccc2)cc1,survivor count,"dose: 200.0 mg/kg/injection, schedule: Q04DX002 (ip), vehicle: Klucel (hydroxypropylcellulose) (HPC)",3 of 3
CC(=O)Nc1ccc(C(C)(C)c2ccc([N+](=O)[O-])cc2)cc1[N+](=O)[O-],survivor count,"dose: 200.0 mg/kg/injection, schedule: Q01DX001 (ip), vehicle: other",4 of 4
C/C(=N/N=C(N)N)c1ccc(NC(=S)Nc2ccc(/C(C)=N/N=C(N)N)cc2)cc1,survivor count,"dose: 40.0 mg/kg/injection, schedule: Q01DX009 (ip), vehicle: water",1 of 6
same,survivor count,"dose: 80.0 mg/kg/injection, schedule: Q01DX009 (ip), vehicle: water",0 of 6
same,survivor count,"dose: 160.0 mg/kg/injection, schedule: Q01DX009 (ip), vehicle: water",0 of 6
same,survivor count,"dose: 320.0 mg/kg/injection, schedule: Q01DX009 (ip), vehicle: water",0 of 6
Nc1[nH]c(=S)nc2c1ncn2C1CCCC1,survivor count,[4],6 of 6
CN=C(NC)c1cccc(NC(=O)c2ccc(C(=O)Nc3cccc(C(=NC)NC)c3)cc2)c1,survivor count,"dose: 15.0 mg/kg/injection, schedule: Q01DX Z (ip), vehicle: saline",1 of 6
same,survivor count,"dose: 30.0 mg/kg/injection, schedule: Q01DX Z (ip), vehicle: saline",0 of 6
same,survivor count,"dose: 60.0 mg/kg/injection, schedule: Q01DX Z (ip), vehicle: saline",0 of 6
same,survivor count,"dose: 120.0 mg/kg/injection, schedule: Q01DX Z (ip), vehicle: saline",0 of 6
O=c1[nH]cc(O)c(=O)[nH]1,T/C,"dose: 400.0 mg/kg/injection, schedule: Q01DX Z (ip), vehicle: carboxymethylcellulose (CMC)",125 % of control
same,T/C,"dose: 600.0 mg/kg/injection, schedule: Q01DX Z (ip), vehicle: carboxymethylcellulose (CMC)",125 % of control
CN(C)N=Nc1ccccc1C#N,survivor count,"dose: 100.0 mg/kg/injection, schedule: Q01DX009 (ip), vehicle: Klucel (hydroxypropylcellulose) (HPC)",3 of 6
C=Cc1cnc(NC(C)=O)c(C#N)n1,survivor count,"dose: 400.0 mg/kg/injection, schedule: Q01DX001 (ip), vehicle: Klucel (hydroxypropylcellulose) (HPC)",1 of 3
C=CCNC(=S)Nc1ccc(N(C)C)cc1,survivor count,"dose: 400.0 mg/kg/injection, schedule: Q04DX003 (ip), vehicle: saline with Tween-80",6 of 6
O=P(O)(O)/C=C/c1ccccc1,survivor count,"dose: 400.0 mg/kg/injection, schedule: Q04DX003 (ip), vehicle: Klucel (hydroxypropylcellulose) (HPC)",4 of 6
c1ccc2c(c1)CCc1c-2[nH]c2ccccc12,survivor count,[8],3 of 6
